± gives the standard deviation of the averaged measurements. The reference is the same well before dosing, and untreated signal decays as well.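 Fibroblast labels denote human fibroblasts, mainly primary ones from uterus (C12385, HUF), lung (H6013), bone (Hs27A), adrenal (HADF) and skin (WS1), plus mammary HMF and breast cancer-associated Hs343T. Cancer cells are basal-like or mesenchymal-like triple-negative breast cancer lines. A hit is a response shift exceeding 3x replicate standard deviation. The tissue of the other fibroblasts is not given here.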
Test system: BT20
Experiment: relative JC-1 red fluorescence (viability) vs pre-drug, coculture with fibroblast (fraction); higher = more viable cancer cells
Description: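 JC-1 labelled TNBC cells cocultured 1:1 (1,500 cells each) with CellTrace Violet stained primary or stromal fibroblasts in 384-well plates in FluoroBrite medium, treated with one of 42 anticancer drugs at 0.1, 1, 10 or 100 uM. JC-1 red fluorescence (mitochondrial integrity in cancer cells only) was read by plate reader every 8 h for 72 h. Values are normalised to each well's pre-drug value. The stock of one drug was tenfold lower, so its dose labels may be too high.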

COc1cc([C@@H]2c3cc4c(cc3[C@@H](O[C@@H]3O[C@@H]5CO[C@@H](c6cccs6)O[C@H]5[C@H](O)[C@H]3O)[C@H]3COC(=O)[C@H]23)OCO4)cc(OC)c1O [Teniposide]
relative JC-1 red fluorescence
Settings	8 h	16 h	24 h	32 h	40 h	48 h	56 h	64 h	72 h
10 µM, coculture fibroblast: C12385	0.876 ± 0.028	0.819 ± 0.013	0.781 ± 0.022	0.72 ± 0.069	0.673 ± 0.066	0.664 ± 0.087	0.649 ± 0.095	0.646 ± 0.096	0.638 ± 0.1
10 µM, coculture fibroblast: H6013	0.955 ± 0.032	0.885 ± 0.01	0.8 ± 0.0086	0.698 ± 0.031	0.647 ± 0.059	0.613 ± 0.065	0.603 ± 0.062	0.577 ± 0.045	0.562 ± 0.052
10 µM, coculture fibroblast: H6019	0.8716 ± 0.0034	0.813 ± 0.035	0.758 ± 0.12	0.654 ± 0.11	0.607 ± 0.13	0.609 ± 0.14	0.597 ± 0.14	0.599 ± 0.14	0.593 ± 0.14
10 µM, coculture fibroblast: H6076	0.983 ± 0.016	0.8944 ± 0.0041	0.79 ± 0.056	0.753 ± 0.094	0.722 ± 0.14	0.701 ± 0.16	0.716 ± 0.18	0.722 ± 0.18	0.7 ± 0.19
10 µM, coculture fibroblast: H6231	0.745 ± 0.054	0.905 ± 0.026	0.756 ± 0.044	0.6732 ± 0.0049	0.6315 ± 0.0037	0.581 ± 0.014	0.539 ± 0.019	0.526 ± 0.034	0.511 ± 0.031
10 µM, coculture fibroblast: HADF	0.844 ± 0.18	0.948 ± 0.017	0.883 ± 0.043	0.781 ± 0.034	0.744 ± 0.076	0.709 ± 0.084	0.719 ± 0.097	0.717 ± 0.1	0.694 ± 0.089
10 µM, coculture fibroblast: HCFa	0.964 ± 0.02	0.9328 ± 0.0044	0.898 ± 0.018	0.815 ± 0.033	0.784 ± 0.024	0.757 ± 0.036	0.765 ± 0.067	0.77 ± 0.092	0.76 ± 0.12
10 µM, coculture fibroblast: HCPF	0.935 ± 0.076	0.936 ± 0.031	0.854 ± 0.034	0.786 ± 0.039	0.733 ± 0.046	0.687 ± 0.029	0.662 ± 0.026	0.663 ± 0.048	0.631 ± 0.045
10 µM, coculture fibroblast: HHSteC	0.918 ± 0.015	0.8589 ± 0.00092	0.827 ± 0.013	0.726 ± 0.018	0.687 ± 0.035	0.652 ± 0.045	0.644 ± 0.055	0.634 ± 0.053	0.611 ± 0.059
10 µM, coculture fibroblast: HMF	0.817 ± 0.16	0.93 ± 0.03	0.813 ± 0.029	0.728 ± 0.066	0.685 ± 0.07	0.638 ± 0.08	0.621 ± 0.068	0.595 ± 0.08	0.571 ± 0.099
10 µM, coculture fibroblast: HPFa	0.9387 ± 0.0058	0.911 ± 0.011	0.908 ± 0.045	0.799 ± 0.04	0.793 ± 0.04	0.759 ± 0.038	0.759 ± 0.021	0.743 ± 0.029	0.709 ± 0.032
10 µM, coculture fibroblast: HUF	0.892 ± 0.014	0.8306 ± 0.002	0.763 ± 0.03	0.675 ± 0.068	0.637 ± 0.075	0.608 ± 0.097	0.608 ± 0.1	0.603 ± 0.11	0.596 ± 0.11
10 µM, coculture fibroblast: Hs5	0.872 ± 0.14	0.936 ± 0.05	0.88998 ± 0.00017	0.8683 ± 0.0072	0.835 ± 0.029	0.817 ± 0.045	0.827 ± 0.046	0.813 ± 0.034	0.801 ± 0.025
10 µM, coculture fibroblast: Hs27A	0.898 ± 0.021	0.849 ± 0.01	0.809 ± 0.14	0.885 ± 0.075	0.849 ± 0.094	0.843 ± 0.1	0.852 ± 0.1	0.84 ± 0.098	0.809 ± 0.093
10 µM, coculture fibroblast: Hs343T	0.832 ± 0.15	0.916 ± 0.055	0.7514 ± 0.0011	0.655 ± 0.045	0.593 ± 0.098	0.559 ± 0.12	0.531 ± 0.12	0.523 ± 0.13	0.501 ± 0.13
10 µM, coculture fibroblast: WS1	0.883 ± 0.018	0.822 ± 0.018	0.8 ± 0.015	0.724 ± 0.034	0.675 ± 0.059	0.658 ± 0.065	0.654 ± 0.073	0.648 ± 0.082	0.65 ± 0.085
100 µM, coculture fibroblast: C12385	0.9152 ± 0.0072	0.858 ± 0.011	0.849 ± 0.052	0.843 ± 0.11	0.839 ± 0.12	0.862 ± 0.13	0.855 ± 0.15	0.851 ± 0.19	0.843 ± 0.19
100 µM, coculture fibroblast: H6013	0.9826 ± 0.0034	0.93 ± 0.05	0.847 ± 0.14	0.853 ± 0.1	0.825 ± 0.093	0.909 ± 0.021	0.851 ± 0.067	0.792 ± 0.13	0.821 ± 0.07
100 µM, coculture fibroblast: H6019	0.911 ± 0.012	0.863 ± 0.042	0.8937 ± 0.005	0.866 ± 0.016	0.884 ± 0.013	0.918 ± 0.055	0.911 ± 0.12	0.784 ± 0.046	0.864 ± 0.071
100 µM, coculture fibroblast: H6076	0.985 ± 0.015	0.93 ± 0.017	0.874 ± 0.039	0.835 ± 0.05	0.833 ± 0.067	0.829 ± 0.072	0.861 ± 0.076	0.898 ± 0.049	0.89 ± 0.071
100 µM, coculture fibroblast: H6231	0.853 ± 0.15	0.923 ± 0.018	0.837 ± 0.014	0.779 ± 0.022	0.801 ± 0.025	0.84 ± 0.028	0.874 ± 0.03	0.858 ± 0.026	0.849 ± 0.04
100 µM, coculture fibroblast: HADF	0.785 ± 0.029	0.747 ± 0.02	0.774 ± 0.053	0.864 ± 0.14	0.922 ± 0.095	0.905 ± 0.079	0.846 ± 0.19	0.899 ± 0.03	0.95 ± 0.047
100 µM, coculture fibroblast: HCFa	0.929 ± 0.058	0.856 ± 0.16	0.869 ± 0.16	0.84 ± 0.16	0.706 ± 0.017	0.774 ± 0.1	0.739 ± 0.045	0.735 ± 0.052	0.772 ± 0.065
100 µM, coculture fibroblast: HCPF	0.915 ± 0.025	0.9557 ± 0.0072	0.904 ± 0.013	0.851 ± 0.0094	0.825 ± 0.044	0.798 ± 0.043	0.802 ± 0.075	0.793 ± 0.087	0.77 ± 0.13
100 µM, coculture fibroblast: HHSteC	0.961 ± 0.037	0.853 ± 0.14	0.835 ± 0.15	0.907 ± 0.054	0.905 ± 0.031	0.902 ± 0.03	0.928 ± 0.024	0.933 ± 0.0097	0.9176 ± 0.0057
100 µM, coculture fibroblast: HMF	0.9853 ± 0.0013	0.9455 ± 0.0061	0.8722 ± 0.0029	0.8107 ± 0.0076	0.791 ± 0.031	0.771 ± 0.041	0.782 ± 0.055	0.786 ± 0.035	0.772 ± 0.025
100 µM, coculture fibroblast: HPFa	0.783 ± 0.12	0.816 ± 0.15	0.879 ± 0.053	0.897 ± 0.09	0.94 ± 0.083	0.764 ± 0.08	0.858 ± 0.024	0.757 ± 0.0074	0.76 ± 0.057
100 µM, coculture fibroblast: HUF	0.948 ± 0.026	0.934 ± 0.051	0.941 ± 0.066	0.904 ± 0.088	0.921 ± 0.11	0.794 ± 0.076	0.788 ± 0.1	0.863 ± 0.017	0.797 ± 0.12
100 µM, coculture fibroblast: Hs5	0.802 ± 0.1	0.97169 ± 0.00063	0.935 ± 0.029	0.897 ± 0.058	0.908 ± 0.069	0.895 ± 0.085	0.9 ± 0.085	0.887 ± 0.094	0.879 ± 0.089
100 µM, coculture fibroblast: Hs27A	0.7482 ± 0.0037	0.87 ± 0.033	0.808 ± 0.15	0.872 ± 0.063	0.732 ± 0.023	0.753 ± 0.051	0.891 ± 0.044	0.71 ± 0.02	0.9 ± 0.04
100 µM, coculture fibroblast: Hs343T	0.85 ± 0.051	0.931 ± 0.0066	0.832 ± 0.021	0.744 ± 0.015	0.692 ± 0.019	0.654 ± 0.032	0.678 ± 0.043	0.702 ± 0.03	0.73 ± 0.028
100 µM, coculture fibroblast: WS1	0.885 ± 0.0028	0.8256 ± 0.0043	0.818 ± 0.005	0.773 ± 0.015	0.736 ± 0.037	0.755 ± 0.033	0.766 ± 0.021	0.779 ± 0.0083	0.794 ± 0.011

Reference: the supplement of paper PMC6078165
